Source: article PMC8875491
No constants are given. Whether binding was seen depends on the method and setting. Binding seen in cells or lysates may run through a third protein. Some binding calls cover weakened binding; strength is not graded here. Each block holds one molecule with its values, some of them ahead of it.

By UniProt entry, the sequences of proteins in these tests, tags left out.
UniProt P49069: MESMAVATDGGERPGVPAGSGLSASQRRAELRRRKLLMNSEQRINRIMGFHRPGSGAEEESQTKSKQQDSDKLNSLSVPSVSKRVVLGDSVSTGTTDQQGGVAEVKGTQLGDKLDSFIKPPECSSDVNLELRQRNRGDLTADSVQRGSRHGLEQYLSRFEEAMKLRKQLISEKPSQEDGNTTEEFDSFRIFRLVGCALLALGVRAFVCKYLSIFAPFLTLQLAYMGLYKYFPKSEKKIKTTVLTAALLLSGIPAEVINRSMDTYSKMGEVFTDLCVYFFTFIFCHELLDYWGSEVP

What was measured:
[1] = molecular target: T1, mouse wild type (WT) BRIL (mouse) (UniProt O88728); assay: co-IP; MLO-A5 cells co-transfected, lysates after 24 h (50 mM Tris-HCl pH 7.4, 150 mM NaCl, 1 mM EDTA, 1% NP-40), BRIL co-IP with protein G dynabeads at 4 °C, Western blotting
T1 sequence: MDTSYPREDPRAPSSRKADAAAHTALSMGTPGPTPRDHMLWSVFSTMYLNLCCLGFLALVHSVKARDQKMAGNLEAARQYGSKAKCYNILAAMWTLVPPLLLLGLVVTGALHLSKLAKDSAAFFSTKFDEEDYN

[2] = molecular target: T1, mouse wild type (WT) BRIL (mouse); assay: co-IP; HEK293 cells co-transfected, lysates after 24 h (50 mM Tris-HCl pH 7.4, 150 mM NaCl, 1 mM EDTA, 1% NP-40), immunoprecipitated with anti-BRIL or anti-FLAG antibody and protein G dynabeads at 4 °C, Western blotting
[3] = molecular target: C-terminally FLAG-tagged CAML (calcium-modulating cyclophilin ligand) (UniProt P49069); assay: as above

binding [1]: binds | binding [2]: binds
Molecule: C-terminally FLAG-tagged CAML (calcium-modulating cyclophilin ligand) (from UniProt P49069 1-296)

binding [3]: binds
B1: mouse wild type (WT) BRIL (protein, UniProt O88728 1-134)
chain: T1 sequence
